# Source: patent publication US20100184614
# Chains of the proteins cited; added tags and fusions are not shown. Residues count along the entry.
# UniProt P08047, 2-785: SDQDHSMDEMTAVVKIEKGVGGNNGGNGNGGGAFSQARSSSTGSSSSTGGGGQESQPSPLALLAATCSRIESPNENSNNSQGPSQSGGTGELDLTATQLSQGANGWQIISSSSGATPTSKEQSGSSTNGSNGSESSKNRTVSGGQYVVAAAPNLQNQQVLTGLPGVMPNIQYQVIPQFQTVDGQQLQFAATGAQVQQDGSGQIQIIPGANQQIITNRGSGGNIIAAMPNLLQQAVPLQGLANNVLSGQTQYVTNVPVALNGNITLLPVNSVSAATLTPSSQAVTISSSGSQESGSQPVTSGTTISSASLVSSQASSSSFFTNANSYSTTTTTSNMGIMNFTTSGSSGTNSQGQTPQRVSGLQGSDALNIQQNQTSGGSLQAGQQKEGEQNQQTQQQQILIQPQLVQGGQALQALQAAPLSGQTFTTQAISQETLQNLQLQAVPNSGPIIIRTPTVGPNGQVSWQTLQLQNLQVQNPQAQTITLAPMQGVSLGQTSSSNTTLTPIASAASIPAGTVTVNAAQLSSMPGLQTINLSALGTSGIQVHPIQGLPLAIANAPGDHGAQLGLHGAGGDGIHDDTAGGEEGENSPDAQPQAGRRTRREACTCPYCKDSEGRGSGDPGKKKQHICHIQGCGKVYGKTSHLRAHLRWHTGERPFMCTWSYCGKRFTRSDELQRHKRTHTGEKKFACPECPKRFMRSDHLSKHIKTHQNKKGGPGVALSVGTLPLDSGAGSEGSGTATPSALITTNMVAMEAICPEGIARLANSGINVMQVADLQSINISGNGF
# UniProt Q04206, whole entry: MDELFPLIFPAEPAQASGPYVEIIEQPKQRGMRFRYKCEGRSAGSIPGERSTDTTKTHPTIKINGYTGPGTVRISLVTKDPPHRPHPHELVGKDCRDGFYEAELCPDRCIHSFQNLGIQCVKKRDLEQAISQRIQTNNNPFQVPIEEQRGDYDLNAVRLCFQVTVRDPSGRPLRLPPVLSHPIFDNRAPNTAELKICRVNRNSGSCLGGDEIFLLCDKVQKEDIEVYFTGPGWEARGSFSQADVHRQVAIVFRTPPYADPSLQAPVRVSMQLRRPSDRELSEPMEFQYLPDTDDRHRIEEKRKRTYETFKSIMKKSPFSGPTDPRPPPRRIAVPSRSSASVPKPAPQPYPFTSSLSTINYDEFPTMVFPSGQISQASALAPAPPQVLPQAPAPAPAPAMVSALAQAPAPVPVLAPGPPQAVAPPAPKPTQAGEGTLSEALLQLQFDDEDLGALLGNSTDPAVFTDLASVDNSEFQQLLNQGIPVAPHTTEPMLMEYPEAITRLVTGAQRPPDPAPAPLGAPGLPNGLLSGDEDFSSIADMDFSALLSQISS
# UniProt P03372, whole entry: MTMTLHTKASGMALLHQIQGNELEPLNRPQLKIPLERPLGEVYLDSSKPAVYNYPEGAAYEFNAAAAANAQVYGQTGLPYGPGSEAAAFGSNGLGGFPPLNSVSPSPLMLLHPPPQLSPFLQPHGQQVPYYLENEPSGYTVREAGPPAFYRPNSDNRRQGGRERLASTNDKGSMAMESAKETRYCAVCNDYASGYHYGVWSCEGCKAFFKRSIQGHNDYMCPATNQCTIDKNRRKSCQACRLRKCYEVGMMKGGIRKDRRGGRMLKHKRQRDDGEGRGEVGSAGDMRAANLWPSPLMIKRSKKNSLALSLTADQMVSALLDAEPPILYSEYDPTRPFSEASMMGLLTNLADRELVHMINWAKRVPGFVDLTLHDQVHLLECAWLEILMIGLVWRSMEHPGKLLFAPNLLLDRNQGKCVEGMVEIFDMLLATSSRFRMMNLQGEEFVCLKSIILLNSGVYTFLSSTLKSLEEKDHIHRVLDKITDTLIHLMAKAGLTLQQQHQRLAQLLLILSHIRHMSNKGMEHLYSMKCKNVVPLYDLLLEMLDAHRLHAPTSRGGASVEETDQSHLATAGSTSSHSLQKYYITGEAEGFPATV
# Assays:
# [1] = biological target: Sp1 (UniProt P08047); experiment: activity assay; details: complex isolated on polyacrylamide column then microarray, purified recombinant protein, protein details: Promega
# [2] = biological target: NF-kB p65 (NFkb65) (UniProt Q04206); experiment: EMSA; details: purified recombinant protein; protein details: Panomics; label: 5' IRDye 700
# [3] = biological target: NF-kB p65 (NFkb65) (UniProt Q04206); experiment: competition with a labelled probe; details: purified recombinant protein, protein details: Panomics
# [4] = biological target: Sp1 (UniProt P08047); experiment: EMSA; details: purified recombinant protein; protein details: Promega; label: 5' IRDye 700
# [5] = biological target: Estrogen receptor alpha (UniProt P03372); experiment: EMSA; details: with E2; supershift with antibody; purified recombinant protein; protein details: Invitrogen; label: 5' IRDye 700
# [6] = biological target: Sp1 (UniProt P08047); experiment: competition with a labelled probe; details: 100:1 unlabeled mutant had no impact; purified recombinant protein; protein details: Promega; variant of YZ9
# [7] = biological target: Estrogen receptor alpha (UniProt P03372); experiment: competition with a labelled probe; details: with E2; 100:1 unlabeled mutant had no impact; purified recombinant protein; protein details: Invitrogen; variant of YZ11
sequence,measurement,setting,value
TCCTAGCTTCAGAGGGGACTTTCCGAGAGGACCTGAAGAAATGGTTTTGAATCAT / CCTCTCGGAAAGTCCCCTCTGAAGCTAGGA [YZ-7 (Table 17)],activity on this sequence,"[1]; printed YZ-7f tag does not match Y-7t, label: Cy3, counted as no effect",0 signal
CGTGGAATTTCCTCTGTTGTATAGTTTGAGGGATGCTATGT [YZ5],binding result,[2],binds
AGCTTCAGAGGGGACTTTCCGAGAGGTTTTTTGACTAGACCATTCAAAGCT [YZ7],binding result,[2],binds
CGTTAACTTTCCTCTGTTGTATAGTTTGAGGGATGCTATGT [YZ6],binding result,"[3]; 100:1 unlabeled mutant did not affect YZ5 binding, variant of YZ5",no binding
ATTCGATCGGGGCGGGGCGAGCGTTATCCCAACTTCGAATCTCATTT [YZ9],binding result,[4],binds
GTCCAAAGTCAGGTCACAGTGACCTGATCAAAGTTATGCCTTAGGAGAATTGTTTTGTTT [YZ11],binding result,[5],binds
ATTCGATCGGGAAAGGGCGAGCGTTATCCCAACTTCGAATCTCATTT [YZ10],binding result,[6],no binding
CCTGCCAGGTCGCGCTGCCCTCCTTCTACCATGCCTTAGGAGAATTGTTTTGTTT / GGTAGAAGGAGGGCAGCGCGACCTGGCAGG [YZ-11 (Table 17)],activity on this sequence,"[1]; label: IRDye 700 or Cy3, counted as no …",0 signal
AGCTTCAGAGGGGACTAAACGAGAGGTTTTTTGACTAGACCATTCAAAGCT [YZ8],binding result,"[3]; 100:1 unlabeled mutant did not affect YZ7 binding, variant of YZ7",no binding
GTCCAAAGTCAGAACACAGTGATTTGATCAATGCCTTAGGAGAATTGTTTTGTTT [YZ12],binding result,[7],no binding

# For some of these results: The exact form of at least one protein or probe is not confirmed. For some of these results: No signal at the amounts used counts as a negative.
